Results from patent US20150005347A1, “NITROGEN-CONTAINING HETEROCYCLIC DERIVATIVE HAVING 2-IMINO GROUP AND PEST CONTROL AGENT INCLUDING THE SAME” (MEIJI SEIKA PHARMA CO., LTD., priority 2012, published 2015).
Like-named read-outs stand apart in the source and are kept apart here. For some assays here: The name of at least one read-out is uncertain. Some of these results come from one statement about several compounds together.

What was measured:
Assay type in all cases: in vivo
[1] = test system: Frankliniella occidentalis; test: Pest control test of Frankliniella occidentalis, kidney bean leaf disk foliar spray; settings: first instar larvae, three days after release
Procedure, shortened: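 Kidney bean leaf disks (2.8 cm) sprayed with compound in 50% acetone water with 0.05% Tween20, air-dried, then infested with first instar larvae. Held at 25° C, 16 h light/8 h dark; larval mortality (%) calculated from dead versus total larvae, in duplicate.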

[2] = test system: Laodelphax striatella; test: Pest control test of Laodelphax striatella, wheat seedling root treatment; settings: seven days after release
[3] = test system: Spodoptera litura; test: Pest control test against Spodoptera litura, cabbage leaf disk foliar spray; settings: third instar larvae, three days after release
Procedure: Test Example 2 Pest Control Test Against Spodoptera litura
A leaf disk having a diameter of 5.0 cm was cut out from a cabbage in pot culture, and a drug solution of the compound of the present invention at a predetermined concentration, which had been prepared so as to be a 50% acetone water (0.05% Tween20 available), was sprayed to the leaf disk. After an air drying process, third instar larvae were released thereto. Thereafter, the larvae were left to stand in a thermostatic chamber (16 hours of light period-8 hours of dark period) at 25° C. […] Test in duplicate.
(§1) Mortality of larvae(%)={number of dead larvae/(number of survived larvae+number of dead larvae)}×100

[4] = test system: Aphis gossypii; test: Pest control test of Aphis gossypii, cucumber leaf disk foliar spray; settings: first instar larvae, three days after release
Procedure, shortened: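 Cucumber leaf disks (2.0 cm) sprayed with compound at a set concentration in 50% acetone water with 0.05% Tween20, air-dried, then infested with first instar larvae; held at 25 °C, 16 h light/8 h dark. Larval mortality (%) = dead/(survived + dead) × 100; duplicate.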

[5] = test system: Trigonotylus caelestialium; test: Pest control test of Trigonotylus caelestialium, wheat seedling dipping; settings: three days after treatment
Excerpt: Test Example 8 Pest Control Test of Trigonotylus caelestialium
Wheat seedling leaves and stems four days after the dissemination of seedlings were dipped for 30 seconds in a drug solution of the compound of the present invention at a predetermined concentration, which had been prepared so as to be a 50% acetone water (0.05% Tween20 available). After an air drying process, the wheat seedling leaves and stems were placed into a glass tube, and two second instar larvae of Trigonotylus caelestialium were released to the same glass tube. After the larvae were released, the tube was lidded to leave the larvae to stand in a thermostatic chamber at 25° C. In order to supply water to the wheat during the test, water was given to the wheat from the bottom of the glass tube.
as §1

[6] = test system: Haemaphysalis longicornis; test: Pest control test of Haemaphysalis longicornis, dry film in glass vial; settings: dry film from 200 ppm acetone solution; young mites; one day after release
[7] = test system: Haemaphysalis longicornis; test: Pest control test of Haemaphysalis longicornis on the body surface of a mouse; settings: 9.5 μg on the body surface of the mouse; five days after release
[8] = test system: Plutella xylostella; test: Plutella xylostella control test, cabbage leaf disk foliar spray; settings: second instar larvae, three days after release
Procedure, shortened: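 Cabbage leaf disks (5.0 cm) were sprayed with compound in 50% acetone water with 0.05% Tween20, air-dried, then infested with second instar larvae. Disks were held at 25° C under 16 h light/8 h dark, in duplicate. Percent larval mortality was calculated as dead over total larvae.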

[9] = test system: Laodelphax striatella; test: Pest control test of Laodelphax striatella, soil irrigation treatment of rice seedling; settings: 0.05 mg/seedling, three days after release
Excerpt: <Soil Irrigation Treatment Test>
Test Example 10 Pest Control Test of Laodelphax striatellua
(§2) A rice seedling in pot culture was subjected to soil irrigation treatment with a drug solution of the compound of the present invention at a predetermined concentration, which had been prepared so as to be a 10% acetone water. Three days after the treatment, ten second instar larvae of Laodelphax striatella were each released thereto. Thereafter, the larvae were left to stand in a thermostatic chamber (16 hours of light period-8 hours of dark period) at 25° C. […] The test was performed in duplicate.
as §1

[10] = test system: Nilaparvata lugens exhibiting drug resistance to imidacloprid; settings: soil irrigation
Procedure: Test Example 18 Pest Control Test of Drug-Resistant Nilaparvata lugens
as §2, with “Three days after the treatment, ten second instar larvae of Laodelphax striatella were each released thereto.” left out
as §1
Further, for the origin of test pests, bugs collected outdoors within the Kumamoto prefecture in 2007 as the drug resistant Nilaparvata lugens, and bugs collected within the Kagoshima prefecture and then successively reared indoors for a long time as the imidacloprid susceptible populations of Nilaparvata lugens were used.

[11] = test system: Nilaparvata lugens; test: Pest control test of Nilaparvata lugens, soil irrigation treatment; settings: 0.05 mg/seedling, three days after release
Procedure: Test Example 12 Pest Control Test of Nilaparvata lugens
as §2, with “Nilaparvata lugens” for “Laodelphax striatella”
as §1

[12] = dipping treatment of the drug solution at 10 ppm
[13] = dipping treatment of the drug solution at 50 ppm

Cc1cccc(=NC(=O)C(F)(F)F)n1Cc1ccc(Cl)nc1 [Compound 478-2]
mortality of larvae ([1]; foliar treatment at 500 ppm): ≥ 80%
mortality of larvae ([2]; 2 μg/seedling): ≥ 80%
mortality of larvae ([2]; 20 μg/seedling): ≥ 80%
mortality of larvae ([3]; foliar treatment at 100 ppm): ≥ 80%
mortality of larvae ([4]; foliar treatment at 20 ppm): ≥ 80%
mortality of larvae ([4]; foliar treatment at 100 ppm): ≥ 80%
mortality of larvae [5, 12]: ≥ 80%
mortality of insects [6]: ≥ 80%

FC(F)(F)C(=NCc1cccs1)N=c1ccccn1Cc1ccc(Cl)nc1 [Compound 1-122]
mortality of larvae ([1]; foliar treatment at 500 ppm): ≥ 80%
mortality of larvae ([2]; 20 μg/seedling): ≥ 80%
rate of insects agonized in death [7]: ≥ 80%
mortality of larvae ([8]; foliar treatment at 100 ppm): ≥ 80%
mortality of larvae ([8]; foliar treatment at 500 ppm): ≥ 80%
mortality of larvae [9]: ≥ 80%
mortality of larvae ([4]; foliar treatment at 20 ppm): ≥ 80%
mortality of larvae ([4]; foliar treatment at 100 ppm): ≥ 80%
mortality of larvae [5, 13]: ≥ 80%
mortality of insects [6]: ≥ 80%

C=CCN=C(N=c1ccccn1Cc1ccc(Cl)nc1)C(F)(F)F [Compound 1-55]
mortality of larvae ([1]; foliar treatment at 500 ppm): ≥ 80%
mortality of larvae ([2]; 2 μg/seedling): ≥ 80%
mortality of larvae ([2]; 20 μg/seedling): ≥ 80%
mortality of larvae ([3]; foliar treatment at 500 ppm): ≥ 80%
rate of insects agonized in death [7]: ≥ 80%
mortality of larvae ([8]; foliar treatment at 500 ppm): ≥ 80%
mortality of larvae ([4]; foliar treatment at 100 ppm): ≥ 80%

O=C(/C=C1\NCCN1Cc1ccc(Cl)nc1)C(F)(F)F [Comparative Example 3, 3-[1-((6-chloropyridine-3-yl)methyl)imidazolidine-2-ylidene]-1,1,1-trifluoropropane-2-on, reference compound]
Insecticidal effects against Nilaparvata lugens (mortality of larvae %), Drug resistant populations three days after the treatment ([10]; Rate 0.05 mg/pot): 45%

O=C(/N=C1\NCCN1Cc1ccc(Cl)nc1)C(F)(F)F [Comparative Example 6, N-[1-((6-chloropyridine-3-yl)methyl)imidazolidine-2-ylidene]-2,2,2-trifluoroacetamide, reference compound]
Insecticidal effects against Nilaparvata lugens (mortality of larvae %), Drug resistant populations three days after the treatment ([10]; Rate 0.05 mg/pot): 20%

Fc1cc(Cn2ccccc2=NC(=S)C(F)(F)F)cnc1Cl [Compound 5-20]
mortality of larvae ([2]; 2 μg/seedling): ≥ 80%
mortality of larvae [11]: ≥ 80%
mortality of larvae ([8]; foliar treatment at 100 ppm): ≥ 80%
mortality of larvae [9]: ≥ 80%
mortality of insects [6]: ≥ 80%

CCCCN=C(N=c1ccccn1Cc1ccc(Cl)nc1)C(F)(F)F [Compound 1-47]
mortality of larvae ([1]; foliar treatment at 500 ppm): ≥ 80%
mortality of larvae ([2]; 2 μg/seedling): ≥ 80%
mortality of larvae ([2]; 20 μg/seedling): ≥ 80%
mortality of larvae ([3]; foliar treatment at 500 ppm): ≥ 80%
rate of insects agonized in death [7]: ≥ 80%
mortality of larvae ([8]; foliar treatment at 500 ppm): ≥ 80%
mortality of larvae ([4]; foliar treatment at 20 ppm): ≥ 80%
mortality of larvae ([4]; foliar treatment at 100 ppm): ≥ 80%
mortality of insects [6]: ≥ 80%

Cc1cccc(=NC(=O)C(F)(F)F)n1Cc1cnc(Cl)s1 [Compound 479-2]
mortality of larvae ([1]; foliar treatment at 100 ppm): ≥ 80%
mortality of larvae ([1]; foliar treatment at 500 ppm): ≥ 80%
mortality of larvae ([3]; foliar treatment at 100 ppm): ≥ 80%
mortality of larvae ([8]; foliar treatment at 500 ppm): ≥ 80%
mortality of larvae ([4]; foliar treatment at 20 ppm): ≥ 80%
mortality of larvae ([4]; foliar treatment at 100 ppm): ≥ 80%
mortality of larvae ([4]; foliar treatment at 500 ppm): ≥ 80%
mortality of insects [6]: ≥ 80%

CCCN=C(N=c1ccccn1Cc1ccc(Cl)nc1)C(F)(F)F [Compound 1-44]
mortality of larvae ([2]; 2 μg/seedling): ≥ 80%
mortality of larvae ([3]; foliar treatment at 500 ppm): ≥ 80%
rate of insects agonized in death [7]: ≥ 80%
mortality of larvae ([8]; foliar treatment at 100 ppm): ≥ 80%
mortality of larvae ([4]; foliar treatment at 100 ppm): ≥ 80%

FC(F)(F)C(=NCc1ccco1)N=c1ccccn1Cc1ccc(Cl)nc1 [Compound 1-124]
mortality of larvae ([1]; foliar treatment at 500 ppm): ≥ 80%
mortality of larvae ([2]; 2 μg/seedling): ≥ 80%
mortality of larvae ([2]; 20 μg/seedling): ≥ 80%
rate of insects agonized in death [7]: ≥ 80%
mortality of larvae ([8]; foliar treatment at 500 ppm): ≥ 80%
mortality of larvae [9]: ≥ 80%
mortality of larvae ([4]; foliar treatment at 20 ppm): ≥ 80%
mortality of larvae ([4]; foliar treatment at 100 ppm): ≥ 80%
mortality of larvae [5, 13]: ≥ 80%
mortality of insects [6]: ≥ 80%

O=[N+]([O-])NC1=NCCN1Cc1ccc(Cl)nc1 [Imidacloprid]
Insecticidal effects against Nilaparvata lugens (mortality of larvae %), Drug resistant populations three days after the treatment ([10]; Rate 0.01 mg/pot): 0%
Insecticidal effects against Nilaparvata lugens (mortality of larvae %), Drug resistant populations three days after the treatment ([10]; Rate 0.05 mg/pot): 6%

CCOC(=O)NC(=S)/N=c1\ccccn1Cc1ccc(Cl)nc1 [Comparative Example 9, 1-[1-((6-chloropyridine-3-yl)methyl)pyridine-2(1H)-ylidene]-3-ethoxycarbonylthiourea, reference compound]
Insecticidal effects against Nilaparvata lugens (mortality of larvae %), Drug resistant populations three days after the treatment ([10]; Rate 0.05 mg/pot): 31%

O=C(N=c1ccccn1Cc1ccc(Br)nc1)C(F)(F)C(F)(F)F [Compound 4-5]
mortality of larvae ([2]; 20 μg/seedling): ≥ 80%
mortality of larvae ([3]; foliar treatment at 100 ppm): ≥ 80%
mortality of larvae ([3]; foliar treatment at 500 ppm): ≥ 80%
rate of insects agonized in death [7]: ≥ 80%
mortality of larvae ([8]; foliar treatment at 100 ppm): ≥ 80%
mortality of larvae ([8]; foliar treatment at 500 ppm): ≥ 80%
mortality of larvae [9]: ≥ 80%
mortality of larvae ([4]; foliar treatment at 20 ppm): ≥ 80%
mortality of larvae ([4]; foliar treatment at 100 ppm): ≥ 80%
mortality of larvae ([4]; foliar treatment at 500 ppm): ≥ 80%
mortality of larvae [5, 13]: ≥ 80%
mortality of insects [6]: ≥ 80%

CCNC(=S)N=c1ccccn1Cc1ccc(Cl)nc1 [Comparative Example 8, 1-[1-((6-chloropyridine-3-yl)methyl)pyridine-2(1H)-ylidene]-3-ethylthiourea, reference compound]
mortality of larvae ([2]; 20 μg/seedling): 50%
Insecticidal effects against Nilaparvata lugens (mortality of larvae %), Drug resistant populations three days after the treatment ([10]; Rate 0.05 mg/pot): 13%

FC(F)(F)C(F)(F)C(=S)N=c1ccccn1Cc1ccc(Cl)nc1 [Compound 1-23]
mortality of larvae ([2]; 2 μg/seedling): ≥ 80%
mortality of larvae [11]: ≥ 80%
mortality of larvae ([8]; foliar treatment at 100 ppm): ≥ 80%
mortality of larvae [9]: ≥ 80%
mortality of larvae [5, 12]: ≥ 80%
mortality of insects [6]: ≥ 80%

CCN=C(N=c1ccccn1Cc1ccc(Cl)nc1)C(F)(F)F [Compound 1-43]
mortality of larvae ([3]; foliar treatment at 500 ppm): ≥ 80%
rate of insects agonized in death [7]: ≥ 80%
mortality of larvae ([8]; foliar treatment at 100 ppm): ≥ 80%
mortality of larvae ([4]; foliar treatment at 20 ppm): ≥ 80%
mortality of larvae ([4]; foliar treatment at 100 ppm): ≥ 80%

CCCCCCCCN=C(N=c1ccccn1Cc1ccc(Cl)nc1)C(F)(F)F [Compound 1-671]
mortality of larvae ([1]; foliar treatment at 500 ppm): ≥ 80%
mortality of larvae ([3]; foliar treatment at 100 ppm): ≥ 80%
rate of insects agonized in death [7]: ≥ 80%
mortality of larvae ([8]; foliar treatment at 100 ppm): ≥ 80%
mortality of larvae ([8]; foliar treatment at 500 ppm): ≥ 80%
mortality of larvae ([4]; foliar treatment at 20 ppm): ≥ 80%
mortality of larvae ([4]; foliar treatment at 100 ppm): ≥ 80%

O=C(N=c1ccccn1Cc1cnc(Cl)c(F)c1)C(F)(F)C(F)(F)F [Compound 5-5]
mortality of larvae ([3]; foliar treatment at 100 ppm): ≥ 80%
mortality of larvae ([8]; foliar treatment at 100 ppm): ≥ 80%
mortality of insects [6]: ≥ 80%

OCCN=C(N=c1ccccn1Cc1ccc(Cl)nc1)C(F)(F)F [Compound 1-67]
mortality of larvae ([2]; 20 μg/seedling): ≥ 80%
mortality of larvae ([3]; foliar treatment at 500 ppm): ≥ 80%
mortality of larvae ([8]; foliar treatment at 100 ppm): ≥ 80%
mortality of larvae ([4]; foliar treatment at 20 ppm): ≥ 80%
mortality of larvae ([4]; foliar treatment at 100 ppm): ≥ 80%
